In paper PMC12198979 one finds binding data, which are given here for one substance.

These are yes or no findings as the source states them, for the method shown. Binding seen in cells or lysates may run through a third protein. Binding can be weak; no strength is given. Sequences can lack the tags named with a protein.

The target in this assay is T1, DEK-His-GFP (LAP-tag DEK fusion) (human) (UniProt P35659).
T1 sequence: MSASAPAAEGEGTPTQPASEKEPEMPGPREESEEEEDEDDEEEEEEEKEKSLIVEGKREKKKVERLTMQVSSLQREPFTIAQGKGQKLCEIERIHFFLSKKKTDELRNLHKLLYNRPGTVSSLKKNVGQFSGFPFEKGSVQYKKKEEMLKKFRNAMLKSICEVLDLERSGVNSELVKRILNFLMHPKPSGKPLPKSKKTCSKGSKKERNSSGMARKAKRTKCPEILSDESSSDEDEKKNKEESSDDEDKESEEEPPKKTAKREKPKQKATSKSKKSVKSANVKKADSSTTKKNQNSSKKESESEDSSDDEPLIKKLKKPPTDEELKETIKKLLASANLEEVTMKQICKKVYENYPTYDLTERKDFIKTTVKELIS
As to the kind of experiment: co-IP; GFP-trap (LAP-tag immunoprecipitation): nuclear extract of tetracycline-induced HEK293 cells on GFP-trap beads, 1 h at 4°C; wash buffer 10 mM Tris-HCl pH 7.5, 150 mM NaCl, 0.5 mM EDTA; eluted with 0.2 M glycine pH 2.5; immunoblot.

Take “CK2 (human (endogenous in HEK293)) (enzyme)”: the binding result is “binds”.
